This is an account of results in patent US11957762B2, “Immune tolerant and non-immune tolerant elastin-like recombinant peptides and methods of use” (University of Utah Research Foundation, priority 2015, dated 2024).

The amount applied is not stated for every result.

The series relates to DC 2.4 cells. The series can be described thus: Intracellular degradation of RED-NP in DCs (SDS-PAGE of cell lysate). In kind it is cell-based, murine. The settings on record: DC 2.4 cells incubated with Alexa-488 labeled NP for 1 h.

B1: RED-NP: reductive-environment dependable NP, disulfide stabilized fusion iTEPB70-iTEPA28-(G8C)4-pOVA (SEQ ID NO: 61) (protein)
chain: GGAGVPGGAGVPGGAGVPGGAGVPGGAGVPGGAGVPGGAGVPGGAGVPGGAGVPGGAGVPGGAGVPGGAGVPGGAGVPGGAGVPGGAGVPGGAGVPGGAGVPGGAGVPGGAGVPGGAGVPGGAGVPGGAGVPGGAGVPGGAGVPGGAGVPGGAGVPGGAGVPGGAGVPGGAGVPGGAGVPGGAGVPGGAGVPGGAGVPGGAGVPGGAGVPGGAGVPGGAGVPGGAGVPGGAGVPGGAGVPGGAGVPGGAGVPGGAGVPGGAGVPGGAGVPGGAGVPGGAGVPGGAGVPGGAGVPGGAGVPGGAGVPGGAGVPGGAGVPGGAGVPGGAGVPGGAGVPGGAGVPGGAGVPGGAGVPGGAGVPGGAGVPGGAGVPGGAGVPGGAGVPGGAGVPGGAGVPGGAGVPGGAGVPGGAGVPGGAGVPGGGVLPGVGGVLPGVGGVLPGVGGVLPGVGGVLPGVGGVLPGVGGVLPGVGGVLPGVGGVLPGVGGVLPGVGGVLPGVGGVLPGVGGVLPGVGGVLPGVGGVLPGVGGVLPGVGGVLPGVGGVLPGVGGVLPGVGGVLPGVGGVLPGVGGVLPGVGGVLPGVGGVLPGVGGVLPGVGGVLPGVGGVLPGVGGVLPGVGGCGCGCGCGESIINFEKLTESIINFEKLTGG
As for B1, the “time after incubation at which the ~50 kDa band disappeared completely” value worked out at 1 h and the “time after incubation by which the ~50 kDa band mostly faded away” value is given as not above 30 min.
